Data as given in PubChem BioAssay AID1508600 (Functional Genomics Laboratory (NCATS/FGL), 2020).
Among all 53,000 sequences or so, about 3,700 (7%) were called active.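 The calls were made as follows: active = gene knockdowns whose robust z-score for IL-1 alpha signal is at least 2 or at most -2, so actives lie on both sides; inactive = the rest.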 The list shows a part of the results.

Experiment: Components of the Cytosolic LPS Sensing Pathway: Gene Identification via Genome-wide siRNA Screen;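 also: robust z of the log signal after scaling to non-targeting control siRNA wells of the plate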
Conditions: RAW264.7 macrophages, IL-1a HTRF, actives lie on both sides, screened at 100 nM (by protocol), cells primed 5 h with Pam3CSK4 first
Procedure, shortened: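 RAW264.7 mouse macrophages reverse-transfected with single siRNAs (100 nM final) for 48h, primed with Pam3CSK4 for 5 hours, then transfected with LipidA for 24 hour. Supernatant IL-1a read by HTRF; values normalized to negative-control median, log-transformed robust z-scores.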
With GGUACUGACGCAUCUGAGGTT against Spata5l1 the z-score was inactive: 1.53.
For GGUUCAGUUAAGUAAACAGTT against Cdh17, the z-score was inactive: -0.611.
In the case of GGAAUUGAACAACCUGUUGTT against Anapc5, the z-score is reported as inactive: 0.218.
In the case of GGAUUUGUACACACUUCAATT against Tcim, the z-score is reported as inactive: 1.48.
In the case of GCUGUUACUCUUAAACAAATT against Pdhx, the z-score is reported as inactive: 0.254.
For CCCUACUGUAUUAGAAAACTT against Dnph1, the z-score was active: 2.1.
In the case of CCAAGGUAGAGGUGGCGAATT against Pick1, the z-score is reported as inactive: 0.779.
For GCAACGCAGUACUCUACCCTT against Tns2, the z-score was inactive: 0.557.
With GGCCGUAGGCAAUAUCUUATT against Fry the z-score was inactive: -0.52.
In the case of CCGCCUAAAAUCAGAAGCATT against Hepacam, the z-score is reported as inactive: -1.87.
In the case of GCCACCCUUCUGGAGAUUCTT against Gm6787, the z-score is reported as inactive: 1.49.
With GGCAGGAAACCAACAAAGATT against Bmp8b the z-score was inactive: -1.84.
With GGAAUUCCACAGAUAAUGGTT against Vmn1r82 the z-score was inactive: 0.448.
In the case of GGAUGAGAAUCUUCAGGUUTT against Mtmr3, the z-score is reported as inactive: 0.421.
In the case of GGUAUAAACCAAAAAGCAGTT against Wdr27, the z-score is reported as inactive: -0.522.
For GGGUAAACCUCUCUUGUUATT against Hs3st3a1, the z-score was inactive: 0.0265.
With GGUUGACAACACAUCUGCUTT against Ugt2b34 the z-score was inactive: -0.766.
For GCCGAAGACGGAGUAAGUATT against Epha4, the z-score was inactive: -0.901.
For GGCCAGAUGACAUUUUAGGTT against Map3k9, the z-score was inactive: 0.24.
With CCUAUUAUACUGAUCUCGGTT against Gm5420 the z-score was inactive: -0.841.
With CCAUUCUUUCCUAUGGCUATT against Olfr1415 the z-score was inactive: 1.06.
For GGAUGUGGGCACAAAAACUTT against St6gal1, the z-score was inactive: -0.953.
In the case of GCCCAACAUCUGAACAUGCTT against Olfr738, the z-score is reported as inactive: 0.446.
With GUCCAUAAGCGUACAAUUCTT against Olfr410 the z-score was inactive: -1.98.
With GCCCUACGAUACAGCUUCATT against Psmd7 the z-score was inactive: -0.296.
With GGAAUCGACAUUGAAUGUGTT against Rmnd5b the z-score was inactive: -1.41.
For GCAAAAAUUGAAGUCAGUGTT against Serpine2, the z-score was inactive: 0.401.
With GGGAUGUUCUUCAAUCCUGTT against Hecw2 the z-score was inactive: 0.0154.
In the case of GGGUCUGAUCUGUAAUUCATT against Pate4, the z-score is reported as inactive: 0.0449.
With GCCAGAACCGCAUAUUCUUTT against Cks2 the z-score was inactive: -0.481.
In the case of CCACAGUAUCUAAAAAGAGTT against Ubc, the z-score is reported as inactive: -0.237.
In the case of GGACUUCAGACAAUCAAAATT against Gbp5, the z-score is reported as inactive: 0.691.
With GGAGAAAGGAAAAUAAGAGTT against Npy6r the z-score was inactive: -0.889.
For GGAAGUGUACCUCAACAGCTT against Lrig1, the z-score was inactive: 1.78.
With GGAAGAGCUCAACAUCAUUTT against Cnnm1 the z-score was inactive: -1.56.
With CGCUCAGAAGUUGUAGGUGTT against Olfr1264 the z-score was inactive: 0.278.
In the case of GGCAAUUCUUAGGACAAGUTT against Zfp345, the z-score is reported as inactive: 1.09.
For “CCUGACACCUAACUUUAAATT against C230013L11Rik”, the z-score was inactive: 0.824.
For GCAGACCGGAUACUGAACATT against Ddx47, the z-score was inactive: 0.551.
For GGAGACUUAGAAAAAGACUTT against Olfr1426, the z-score was inactive: 1.17.
For GGAAGUAUUGAUCAAGUUGTT against Mfsd8, the z-score was inactive: 1.65.
In the case of GGUGUUUAUCCUAAUAAACTT against Sox12, the z-score is reported as inactive: -0.59.
With GGUGGAUUGUCACACGAGUTT against Eif2ak2 the z-score was inactive: -0.684.
In the case of GGAUUCGUAGUGGCUUCAGTT against Htra2, the z-score is reported as inactive: 1.16.
With GCCUCUCAACAUGAAUUAATT against Gm9918 the z-score was inactive: 0.524.
With GCAAGUCUUAAAGCUCUAGTT against Olfr601 the z-score was inactive: 0.818.
For CCCAGGAACAAUAAAGAGGTT against Twist2, the z-score was inactive: -0.532.
For GGCUUAUGACGAAUUAGUCTT against Ubn2, the z-score was inactive: 0.274.
With GCAGGAUACAUUAAUUGUUTT against Ppp4r3b the z-score was inactive: 0.593.
With CGUACAUCGUCGAGAUUUUTT against Rims1 the z-score was inactive: 0.839.
In the case of GGUCAAAAGGAUUCCUGCATT against Gzmk, the z-score is reported as inactive: -0.183.
With GGUUCCAAAGUGUUUCUGATT against Nsmaf the z-score was inactive: 0.0444.
In the case of GGACUUGGUCAAUCUGACATT against Lrtm2, the z-score is reported as inactive: -0.262.
